Patent US11572402B2, “Method for promoting diversification of antibody variable region” (Chiome Bioscience Inc., priority 2017, dated 2023)
For at least one compound, name, drawing or mass did not settle the structure.

Experiments:
[1] = system: BMAA4-2 cell line; assay: Sequence change analysis using BMAA4-2 cell line according to flow cytometry (cIgM+_Sema3A− population); type: cell-based, chicken; conditions: BMAA4-2 cells, FCM at 1 week of culture, versus negative control CS(−)
Protocol: A frozen stock of the BMAA4-2 cell line (3.0×10^6 cells) was awaken with 10 mL of CS(−) medium, using a 25 cm^2 Flask (Corning, 430639), and the cells were then cultured in a CO2 incubator (SANYO CO2 Incubator MCO-20AIC, 39.5° C., 5% CO2). On the following day, 500 μL each of a CS(−) medium, to which each drug had been added, was added into each well of a 48-well dish (Nunc, 150687), and the cells were then seeded thereon to a cell density of 6.0×10^4 cells/mL (wherein the cell concentration and the survival rate were measured using CASY cell counter (Nepa Gene)). After individual samples had been cultured for 2 days, the samples were subcultured under the same conditions to result in a cell density of 1.0×10^4 cells/mL. […] Thereafter, a plot, in which the vertical axis indicated APC (AF647-labeled Sema3A) and the longitudinal axis indicated PE (Mouse Anti-Chicken IgM-PE), was developed, and the percentage of PE+ (cIgM+)_APC− (Sema3A−) cells was then calculated.
Using the BMAA4-2 cell line, a system for screening for a diversification-promoting compound was constructed (FIG. 1). […] Thus, the percentage of cIgM+_Sema3A− populations under individual culture conditions is measured and compared according to FCM, so that the effect of promoting changes in the amino acid sequences (i.e., the effect of promoting the diversification of the amino acid sequences) can be evaluated.

[2] = system: hVEGF-A-#33 cell line; assay: Screening for diversification-promoting compounds by FCM (hIgG+_hVEGF-A− population); type: cell-based, chicken; conditions: hVEGF-A-#33 cells expressing human IgG, versus negative control CS(−)
Protocol: Frozen stocks of the hVEGF-A #33 cell line and the hVEGF-A #44 cell line (3.0×10^6 cells) were each awaken with a CS(-) medium, using a 25 cm^2 Flask (Corning, 430639), and were then cultured in a CO2 incubator (SANYO CO2 Incubator MCO-20AIC, 39.5° C., 5% CO2). On the following day, the cells were seeded on a 6-well dish (Nunc, 140675) to a cell density of 1.0×10^4 cells/mL (wherein the cell concentration and the survival rate were measured using CASY cell counter (Nepa Gene)). The cells were cultured in a CS(+) medium, in the presence or absence of a PI3Kα inhibitor ([…]: 10 μM, PI3Kα Inhibitor 2: 500 nM). Moreover, after the cells had been cultured for 2 days, individual samples were subcultured under the same conditions to result in a cell density of 1.0×10^4 cells/mL. […] A plot, in which the vertical axis indicated AF647 (AF647-labeled hVEGF-A) and the longitudinal axis indicated PE (Goat Anti-Human IgG-PE), was developed, and the percentage of PE+(hIgG+)/AF647-(hVEGF-A-) cells was then calculated. […] The percentage of clones with improved antigen-binding ability was calculated by counting the number of cells existing in this Affinity Maturation Gate and then dividing the obtained value by the total number of the analyzed cells. […]

Structure (SMILES): COC[C@H]1OC(=O)c2coc3c2[C@@]1(C)C1=C(C3=O)[C@@H]2CCC(=O)[C@@]2(C)C[C@H]1OC(C)=O [Wortmannin]
- percentage of cIgM+_Sema3A− populations (sequence change-promoting action) [1]: increased in comparison to a negative control (CS(−))
- percentage of hIgG+_hVEGF-A− cell population (diversification-promoting effect) [2]: increased in comparison to the negative control (CS(−))
